# Primary screen of a compound library

Amino acid sequences for entries named in this document (tags omitted). Residues count along the entry.
UniProt Q8IDJ8, 1-583: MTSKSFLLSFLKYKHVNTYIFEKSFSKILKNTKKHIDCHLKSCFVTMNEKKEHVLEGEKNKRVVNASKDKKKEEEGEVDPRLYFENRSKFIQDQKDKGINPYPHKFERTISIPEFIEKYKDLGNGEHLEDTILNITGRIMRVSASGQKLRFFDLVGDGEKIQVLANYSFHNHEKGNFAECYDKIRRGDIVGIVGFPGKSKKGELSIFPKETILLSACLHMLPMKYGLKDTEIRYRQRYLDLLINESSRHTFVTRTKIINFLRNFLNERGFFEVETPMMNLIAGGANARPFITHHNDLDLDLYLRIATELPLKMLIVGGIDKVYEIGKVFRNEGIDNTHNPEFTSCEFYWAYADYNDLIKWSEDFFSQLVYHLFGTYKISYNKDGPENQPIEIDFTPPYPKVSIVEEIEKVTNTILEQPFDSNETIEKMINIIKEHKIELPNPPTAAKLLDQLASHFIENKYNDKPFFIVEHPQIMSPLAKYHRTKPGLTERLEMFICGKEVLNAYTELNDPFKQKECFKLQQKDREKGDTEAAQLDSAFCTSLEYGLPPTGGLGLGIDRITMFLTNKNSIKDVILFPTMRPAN
UniProt P9WNZ1, whole entry: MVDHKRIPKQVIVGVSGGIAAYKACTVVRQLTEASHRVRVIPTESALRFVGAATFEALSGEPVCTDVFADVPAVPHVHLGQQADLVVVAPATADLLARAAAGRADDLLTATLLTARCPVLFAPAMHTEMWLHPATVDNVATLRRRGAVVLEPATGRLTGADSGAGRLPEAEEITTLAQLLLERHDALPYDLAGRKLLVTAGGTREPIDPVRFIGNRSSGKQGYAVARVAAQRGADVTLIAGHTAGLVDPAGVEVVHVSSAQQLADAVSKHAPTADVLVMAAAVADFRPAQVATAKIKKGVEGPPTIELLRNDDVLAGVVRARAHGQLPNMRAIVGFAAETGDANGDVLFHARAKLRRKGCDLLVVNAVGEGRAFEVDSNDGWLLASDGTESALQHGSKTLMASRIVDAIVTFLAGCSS

Results are given as percent effect. The record does not define 0% and 100%; most values in the screen are far below 50% and negative numbers occur (in some assays of this library far below -100). The compounds are a random part of those screened. Two or more numbers in one place are separate tests of the same structure; such repeats can differ widely. A dash means the value is not listed here; it may have been measured.

PfKRS1: 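Lysine-tRNA ligase, Plasmodium falciparum 3D7 (UniProt Q8IDJ8). Enzyme assay of the cytosolic lysyl-tRNA synthetase in 384-well plates, read by luminescence. Tested at 30 µM. Higher reads as stronger inhibition, judged from the few compounds that gave an IC50. Size under these conditions: about 69,000 compounds, about 49 of them at 50% or above in at least one test.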
Toxoplasma: 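Assay of Toxoplasma gondii numbers, read through their beta-galactosidase reporter with a colour substrate. Tested at 10 µM. Higher reads as fewer parasites (inferred from which compounds were picked for retests). Size under these conditions: about 67,000 compounds, about 260 of them at 50% or above in at least one test.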
CoaBC: 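Enzyme assay of CoaBC with a phosphate dye (Biomol Green) read at 650 nm. Target: Coenzyme A biosynthesis protein CoaBC, Mycobacterium tuberculosis (UniProt P9WNZ1). Tested at 30 µM. Direction is inferred from only a few compounds that gave an IC50; most scored high, so higher reads as stronger inhibition. Most strong results did not repeat in a second test. Of about 67,000 compounds tested this way, about 40 (0.06%) reached 50% or more in at least one test.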

SMILES,PfKRS1,Toxoplasma,CoaBC
Cn1cc(CCNC(=O)c2cc3ccccc3nc2N2CCCC2)cn1,9.646,3.409,4.669
Fc1cnc(N2CCO[C@H]3CN(CC4CCC4)C[C@H]32)nc1,-1.139,-,-0.8883
CCOc1ccnc(N2CCCN(c3nc(CC)ns3)CC2)n1,4.888,-3.122,7.366
[H][C@@]12CCN(S(C)(=O)=O)[C@]1([H])CC[C@@H](c1nc(C)no1)O2,-,2.205,-
COCCOc1ncccc1C(=O)N1CCCC1Cn1cc(C)cn1 (stereo unspecified),-0.3719,-16.79,-0.1242
Cc1nc[nH]c1CN1C[C@@H]2CC[C@H](C1)N(C(=O)CCNS(C)(=O)=O)C2,1.771,-,8.861
COc1cccc(Cn2cc(N3C(=O)CCC3=O)cn2)c1,3.315,6.215,-1.952
CC(C)CCN(C)C(=O)c1cnc2c(cnn2CC(C)C)c1,1.631,2.065,-1.471
CC(C)N(C)Cc1cncc2c1CCN(C1CCOCC1)C2,1.977,-,1.951
O=C(O)C(F)(F)F.O=C(c1cnccn1)N1CCc2ncnc(-c3cccnc3)c2CC1,-,0.1068,-
[H][C@@]12CCN(C(=O)Cc3ccc(F)cc3OC)C[C@]1([H])OCCNC2=O,-,-22.71,-
O=C(c1ccco1)N1C[C@H]2CCCN(Cc3nccs3)[C@H]2C1,1.341,-,13.45
CC(C)c1nc(N2CC(N3CCCCC3C)C2)c2cnn(C)c2n1 (stereo unspecified),-8.29,22.68,0.2151
Cc1cnc(CN(C)C2CCN(CC(=O)Nc3nncs3)C2)o1 (stereo unspecified),10.49,-,-3.856
CN(C(=O)NC1CC1)C1CCN(c2ccc(Cl)cc2)CC1,4.177,15.06,-2.02
COCCCN(Cc1cnc(-c2ccccn2)nc1)C1CCN(C)CC1,0.2794,-20.27,6.914
Cc1nc[nH]c1CNC1CC(=O)N(CCc2cccc(Cl)c2)C1 (stereo unspecified),2.719,-18.09,4.039
COCc1nc(C(=O)N2CCN(Cc3ccsc3)CC2)cs1,1.06,10.64,3.44
COCCCNC(=O)CN(C)C(C)c1nc(C)no1 (stereo unspecified),-1.426,19.99,-0.4959
COCCn1/c(=N\C(=O)CN(C)S(C)(=O)=O)sc2cc(Cl)ccc21,2.112,-3.287,-4.893
O=C(NC[C@H]1OC[C@@H](NC2CCC(F)(F)CC2)[C@@H]1O)C1CC1,4.565,17.31,-0.6623
O=C(C[C@@H]1COC[C@H]2CN(C3CCCC3)C[C@@H]12)NCc1cccnc1,1.403,-,2.788
CNC(=O)[C@@H](c1ccccc1OC)N1CCC[C@H]1C(=O)N1CCC1.Cl,-,6.527,-
Cc1cccc(-n2cc(C(=O)N3CCn4c(C)nnc4C3)nn2)c1,-2.893,22.21,-2.366
Cc1nc(C2CCN(S(=O)(=O)c3ccc4c(c3)CCC4)CC2)n[nH]1,8.346,-0.2157,-
CCC(=O)NCC(=O)NCC1(c2c(F)cccc2F)CCCC1,5.754,0.3509,-9.535
COc1cccc(CN2CCC3(CC(Nc4ccncn4)C3)C2)c1F (stereo unspecified),2.944,-16.53,3.39
O=C(O)C(F)(F)F.[H][C@@]12CCN(C3CCCC3)C[C@]1([H])[C@H](C(=O)NC1CCC1)CCO2,-,6.423,-
CCNc1ncc(CN2C[C@@H](C(=O)O)[C@H](C3CC3)C2)cn1,1.654,-6.965,-2.419
Fc1ccc(C(CNc2ccncn2)N2CCCCC2)cc1 (stereo unspecified),-0.2974,4.966,5.542
Cc1ccc(-n2ncc(C(=O)NCC3CCS(=O)(=O)C3)c2C)cc1 (stereo unspecified),0.8576,2.223,14.09
CC1CCCN(c2nccn3c(=O)[nH]nc23)C1 (stereo unspecified),5.766,2.9,-2.105
O=C(c1cccnc1)N1C[C@@H]2CN(CCN3CCCC3)C(=O)[C@@H]2C1,4.256,-,5.172
Cn1cnnc1S(=O)(=O)C1CCN(C(=O)c2cccs2)CC1,2.955,-9.577,-2.521
CC(C)(C)CC(=O)NCC(=O)Nc1ccn(Cc2ccccc2)n1,0.9206,-11.25,-0.6329
CCn1cc(CN2CCN(C(=O)c3cc(C)c(C)s3)CC2)c(C)n1,6.485,1.919,3.479
CCS(=O)(=O)N1CCC2(CC(=O)N(c3cncnc3)C2)C1 (stereo unspecified),10.4,10.99,1.954
O=C(Cc1ccccn1)N1C[C@H]2CN(Cc3ccccn3)C[C@H]2C1,3.462,-,5.817
O=C(C1CC1)N1CC[C@@H]2[C@H](CC1)N(Cc1cccnc1)CCS2(=O)=O,4.839,-,2.469
c1cc(CN2CCc3c(CN4CCCC4)n[nH]c3C2)ccn1,0.5259,1.436,-
[H][C@]12CC[C@@]3(N=C(CC)N(CC(C)C)C3=O)[C@@]1([H])CN(S(C)(=O)=O)C2,-,-2.709,-
CCN(CC)S(=O)(=O)c1ccc(CNc2cc(C)nc(C)n2)cc1,-2.855,16.16,-5.052
O=C(CCn1cncn1)NC1(c2cccc(Br)c2)CCC1,-1.16,5.448,12.73
COc1ccc(CN2CCc3ncnc(C4CCOC4)c3CC2)cc1 (stereo unspecified),3.37,-,-5.964
C[C@]1(O)CN(Cc2ncc[nH]2)CC[C@@H]1Oc1cccc(F)c1,3.73,2.844,0.7282
CCCN(C(=O)CS(=O)(=O)c1ccccc1)c1cccc(C)c1,9.68,-5.699,-2.851
CC(NCc1cnc(N2CCOCC2)nc1)c1ccc(Cl)s1 (stereo unspecified),13.62,-,5.912
Cc1ccc(CNC(=O)NC2CCCc3c2cnn3CCO)cn1 (stereo unspecified),9.241,9.186,-2.479
CS(=O)(=O)NCCC(=O)N1Cc2cnc(-c3ccccc3)nc2C1,3.933,7.697,-4.073
COc1ccc(-c2cnc3c(c2)CN(C2CC2)C(=O)CCN3)cc1,3.69,-13.32,3.874
CC(CCc1ccccc1F)C(=O)NS(C)(=O)=O (stereo unspecified),11.01,-4.607,5.063
CCn1cc(-c2c(C)c(C3CCOC(C)(C)C3)nc(N)c2C#N)cn1 (stereo unspecified),-12.37,7.35,4.04
COC1CCN(CCNC(=O)NC(C)c2ccc(F)c(F)c2)CC1 (stereo unspecified),-1.146,1.732,17.99 and 101.8
COCCN(C/C=C/c1ccccc1)Cc1nccs1,0.9978,4.372,7.559
Cn1cc(CN2CCC[C@]3(C(=O)O)CN(c4cnccn4)CC[C@@H]23)cn1,2.803,-,0
COCCc1noc(CN2CCCC2c2noc(C)n2)n1 (stereo unspecified),3.135,19.55,2.284
Cc1nc(CN2CCCC2Cn2ccnc2C(C)C)nc2ccccc12 (stereo unspecified),-4.025,-20.16,11.19
COc1ccc(-n2c(COC(C)C)n[nH]c2=O)cc1,4.92,16.31,6.838
CC(C)(O)CN1CCN(C(=O)C2CSc3ccccc3O2)CC1 (stereo unspecified),3.273,2.709,2.871
O=C(O)C(F)(F)F.[H][C@@]12COC[C@]1([H])[C@@H](OCC1CCOCC1)CN2Cc1cc(C)c(C)o1,-,2.538,-
OCC1CCCN1c1cc(N2CCc3ccccc3C2)ncn1 (stereo unspecified),4.444,12.7,11.54
Cc1ccc(-c2cnnc(NCC3(N4CCOCC4)CCCC3)n2)o1,0.4646,-8.434,2.073
O=C(O)C(F)(F)F.[H][C@@]12CCCO[C@]1([H])[C@H](N(C)Cc1ccco1)CN(C(=O)c1ccnnc1)C2,-,-4.43,-
COCCC1COC2(CCN(C(=O)c3cccn3C)CC2)C1 (stereo unspecified),2.754,1.356,4.5
CN(Cc1ccsc1)C(=O)c1cccc(S(=O)(=O)NC(C)(C)C)c1,3.675,-1.8,4.337
Cc1cc(N2CCCN(C(C(=O)O)c3cccc(C)c3F)CC2)ccn1 (stereo unspecified),-1.032,11.34,-4.224
O=C(NCc1cn2c(n1)CN(Cc1nccs1)CC2)C1CCC1.O=C(O)C(F)(F)F,-,13.35,-

6 of the entries, repeated:

SMILES,PfKRS1,Toxoplasma,CoaBC
O=C(O)C(F)(F)F.[H][C@@]12COC[C@]1([H])[C@@H](OCC1CCOCC1)CN2Cc1cc(C)c(C)o1,-,2.538,-
O=C(c1ccco1)N1C[C@H]2CCCN(Cc3nccs3)[C@H]2C1,1.341,-,13.45
Cc1cnc(CN(C)C2CCN(CC(=O)Nc3nncs3)C2)o1 (stereo unspecified),10.49,-,-3.856
Fc1cnc(N2CCO[C@H]3CN(CC4CCC4)C[C@H]32)nc1,-1.139,-,-0.8883
COCCN(C/C=C/c1ccccc1)Cc1nccs1,0.9978,4.372,7.559
[H][C@@]12CCN(S(C)(=O)=O)[C@]1([H])CC[C@@H](c1nc(C)no1)O2,-,2.205,-

Source: ChEMBL document CHEMBL3988442, “University of Dundee, Small-Polar-MMV Screening Library” (2021).